## Screening data

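Genome-wide siRNA knockdown in TC32 Ewing sarcoma cells, comparing luciferase light from an NR0B1-promoter reporter with a CMV-promoter reporter 48 hours after transfection. Each siRNA was applied at 20 nM. A z-score of the log NR0B1-over-CMV signal, less the median of siRNAs with the same seed; more negative means a stronger specific loss of the NR0B1 reporter.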

The strongest results of the screen are mostly left out here. Sequences are the guide (antisense) strand, without overhang.

Sequence	gene	seed-corrected z-score
UAAUGCUUCUUUUUGCCUG	PADI1	0.01064
AAUCUUUCCAUCAUUAGGC	ZFP69B	0.6908
AAGAUGUUGACCACGGCGC	SLC32A1	0.04433
AACAUUGAAAGCUUCACCG	GDPGP1	-0.02708
UAGGUAAUAAGAUCUGGAC	ABLIM1	-0.3005
UUAGCUACAACACGGCUGG	S100B	-0.01468
UGUUGAUCAGGGAUCCUAC	RPL23P7	-1.244
AAGCUGACCACGAACAGGG	TMED3	-0.008902
AAUGUGGACAGCACUAGUC	POF1B	0.1093
UUUCCGAUUACUGGUGCGG	MAST1	-0.8725
UAAGUAGGGAUGCAUCUGC	ATXN10	0.9051
AUUUCGAAAAACAUCCUGG	GNPTAB	0.2224
UACAUAGUGACUUCGAACU	MRPS14	0.705
UUCCCGACAGCUGACAUCU	LINC00330	-0.3508
UGUCAUAUAAUAUUCUCCU	MICU2	0.1989
UCUAUACUCAGGGUCAUCC	HUS1B	1.052
UCGAGGAUGAGGUCAACCC	GLTSCR2	-0.3355
UCCAUAGCAAGUUUAUGAG	PNPT1	-0.8968
UUAAGGUAUACUCAUCAGC	EFHC2	1.275
UAAUAGGAAGGUUACAUAC	GTF2H2B	-0.09761
UCAGGUAGCAGGCAUCCAG	HIF3A	0.378
UGUCGAACAGGAAUGGAUA	PAQR6	0.239
UUCCAUACCAAUGAAGGAG	ACTC1	0.291
UGUUUUAAACUCACCGUGC	GPM6B	1.848
UCAGGAUGAUGGGCAAUCG	HAO2	0.4784
UUUCAUGCGAUUGUGACUC	FKBP9	-0.9334
UUCUAGGUCAGAAAUGAUG	ALS2CR12	-0.3398
AUGAGGAAUAUAAUGAUGG	MAS1	0.4496
AAAAGCUUCACGCAUUUCC	CHIA	0.7009
UCAUCACUAACUCCUCUGG	OR4M2	-0.3412
AAAGGGUUAUAAAAGUCUG	CLDN7	-0.4752
UUUCAUAUUAAGUUCUUCC	CCDC160	0.9983
AACCUUUUCAGCAACUGUG	BRCC3	-1.603
UAGGUGUUAGAGUAUUAGC	NUFIP2	-1.306
UUCUCGUCGAACUUUUUCU	HEXIM1	1.079
UCAUCUUCUAAAGGCAUCU	NPPA	0.1067
UAUAAGGACAGAUCUUCGG	SERTAD4	1.335
UCUCAUCUCGGAGUAGUCG	DLG5	0.9428
UUUCCGCAUUGCAAGAGGC	GATA4	-0.3852
UCUUGGUGCUUUCCCAACC	RPL34P34	-0.3175
AAACGAAAGACAGCUAAGC	GGCX	1.006
UGAAAAGGUAGGAUGGAGG	LCNL1	1.096
UGGAUUUUGAUGCAGUGCG	GJD2	1.263
UGCUUUCAAAUUAAGGCUG	KCND3	-0.2001
UGAAUAACUGAGCUAAUGC	OR9K2	-0.9474
AACCUUAUACCUUCUAAAC	PPA1	-1.064
UUGGGAUACAGAGCAUCAG	CELF3	0.6193
UCAGUUCUGAGAUCUGUGC	APOM	-0.9587
UCAUCGGCUGCUUUUCUCC	UNC5CL	1.557
UCAUAAUCCACUAGUGACC	SNX6	0.7834
UCUGUUUCGACGAUAGAGC	TMEM74	-0.03682
UAAGAUCUUCUGUUGCCGC	FBXO21	0.1467
UUACUAUCGACAUUGACUG	ARID4B	-0.4819
AUCAGGUUGAUGGAAUUCU	ADAMTS8	0.4759
UGAUGCAAUAGACAAUCCG	CALCRL	0.04322
UUGCAUCUCGGGAAUUUCC	LOC729968	0.3219
UGCUUUCUCACCUGUCUGU	CLEC19A	-0.02604

Some entries from above, unchanged:

Sequence,gene,seed-corrected z-score
UUUCAUAUUAAGUUCUUCC,CCDC160,0.9983
UUCUAGGUCAGAAAUGAUG,ALS2CR12,-0.3398
UCAGGAUGAUGGGCAAUCG,HAO2,0.4784

Source: PubChem BioAssay AID1159506 (NCATS, 2015).